Experimental data published in PMC3470570.
Results are given in words; binding and its absence hold for the method and conditions named. Binding seen in cells or lysates may run through a third protein.

Chains of the proteins cited; added tags and fusions are not shown.
UniProt Q13309: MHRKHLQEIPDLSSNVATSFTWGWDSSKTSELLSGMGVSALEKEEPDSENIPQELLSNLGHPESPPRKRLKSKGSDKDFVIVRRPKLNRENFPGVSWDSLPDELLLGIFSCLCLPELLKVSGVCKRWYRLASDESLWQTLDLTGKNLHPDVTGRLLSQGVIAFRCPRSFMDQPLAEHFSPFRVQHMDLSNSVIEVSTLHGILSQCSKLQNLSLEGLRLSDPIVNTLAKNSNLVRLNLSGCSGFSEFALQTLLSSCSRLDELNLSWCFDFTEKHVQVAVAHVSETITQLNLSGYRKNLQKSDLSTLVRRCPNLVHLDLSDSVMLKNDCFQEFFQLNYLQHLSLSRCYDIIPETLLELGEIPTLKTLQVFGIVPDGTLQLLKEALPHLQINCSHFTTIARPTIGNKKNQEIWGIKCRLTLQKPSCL
UniProt Q969H0: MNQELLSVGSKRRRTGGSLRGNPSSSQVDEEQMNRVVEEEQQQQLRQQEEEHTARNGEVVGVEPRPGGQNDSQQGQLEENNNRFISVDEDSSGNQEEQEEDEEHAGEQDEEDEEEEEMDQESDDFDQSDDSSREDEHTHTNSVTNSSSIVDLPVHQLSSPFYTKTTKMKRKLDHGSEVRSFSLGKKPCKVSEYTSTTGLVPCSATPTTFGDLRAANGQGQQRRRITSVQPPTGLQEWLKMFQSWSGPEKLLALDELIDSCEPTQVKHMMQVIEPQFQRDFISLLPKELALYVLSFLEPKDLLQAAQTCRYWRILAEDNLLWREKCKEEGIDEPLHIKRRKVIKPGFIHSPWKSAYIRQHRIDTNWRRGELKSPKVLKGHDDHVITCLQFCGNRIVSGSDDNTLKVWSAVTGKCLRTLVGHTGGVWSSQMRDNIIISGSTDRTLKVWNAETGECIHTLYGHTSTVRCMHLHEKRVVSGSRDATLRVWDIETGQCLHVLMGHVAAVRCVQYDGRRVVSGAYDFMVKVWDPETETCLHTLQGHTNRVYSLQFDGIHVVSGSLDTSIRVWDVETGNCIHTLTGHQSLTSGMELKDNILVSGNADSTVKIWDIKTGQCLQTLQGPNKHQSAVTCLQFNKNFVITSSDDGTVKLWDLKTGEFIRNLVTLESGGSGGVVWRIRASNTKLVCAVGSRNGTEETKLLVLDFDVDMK

Molecular target: bacterially expressed GST-Skp2 (UniProt Q13309)
Test: pull-down; bacterially expressed GST-Skp2 (or GST) immobilized onto glutathione beads, incubated with lysates of LNCaP cells transfected with β-TrCP-Myc or Fbw7-Myc; blot with anti-Myc; Fig. 5D; only the target purified

Myc-tagged Fbw7 (from UniProt Q969H0 1-707)
binding: no binding
